Measured data: PubChem BioAssay AID1224828 (NIAID, 2016)

Aim: 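Regulators linking TLR4 signalling to p65 nuclear translocation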 (primary screen)
System: mouse RAW264.7 G9 macrophage reporter cells (GFP-p65, Tnf promoter-mCherry)
Reagent: siRNA pool against mouse genes, 100 nM
Duration: 2 days siRNA transfection, then 40 min LPS before fixation
Challenge: LPS (Salmonella minnesota R595) at 10 ng/ml
Read-out: 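Microscopy ratio of nuclear to perinuclear-ring GFP-p65 signal, scaled to the plate median; gene score is the average of two replicate robust z-scores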
Reading the numbers: p65 translocation robust z-score: higher = more nuclear NF-kappaB p65 after LPS than the plate median; nuclear/cytoplasmic p65 ratio: higher = more nuclear NF-kappaB p65
Rule for the call: 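Called active when z exceeds 3.3 or falls under -1.56 (median of Tlr4 controls), giving activity score of at least 50; no calls for control wells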
Meaning of the calls: active = hit (p65 shift raised or lowered); inactive = no clear change
Shown is one part, drawn at random, of about 17,000 reagents tested. In the full data, 762 (4.5%) got an active call. 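Active calls include both raised and lowered p65 entry, mostly lowered; wells with fewer than 50 cells lack a z-score.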 Raw values vary from plate to plate and are shown uncorrected. No sequences are given here.

How did the screen score 1700123O20Rik?
p65 translocation robust z-score: 0.95; nuclear/cytoplasmic p65 ratio, rep 1: 1.26; nuclear/cytoplasmic p65 ratio, rep 2: 1.54; low cell count flag: enough cells to score; call: inactive

Which result is listed for Arhgap11a?
p65 translocation robust z-score: 1.39; nuclear/cytoplasmic p65 ratio, rep 1: 1.51; nuclear/cytoplasmic p65 ratio, rep 2: 1.85; low cell count flag: enough cells to score; call: inactive

With Tmbim7, how do the results read?
nuclear/cytoplasmic p65 ratio, rep 1: 1.08; nuclear/cytoplasmic p65 ratio, rep 2: 1.39; low cell count flag: fewer than 50 cells per well; well left out of scoring; call: inactive

For Skint4, how do the results read?
p65 translocation robust z-score: -0.98; nuclear/cytoplasmic p65 ratio, rep 1: 1.3; nuclear/cytoplasmic p65 ratio, rep 2: 1.4; low cell count flag: enough cells to score; call: inactive

How did the screen score Rfc4?
p65 translocation robust z-score: -0.19; nuclear/cytoplasmic p65 ratio, rep 1: 1.53; nuclear/cytoplasmic p65 ratio, rep 2: 1.45; low cell count flag: enough cells to score; call: inactive

With Topbp1, what does the deposit list?
p65 translocation robust z-score: 0.46; nuclear/cytoplasmic p65 ratio, rep 1: 1.55; nuclear/cytoplasmic p65 ratio, rep 2: 1.62; low cell count flag: enough cells to score; call: inactive

With Nlgn2, how do the results read?
p65 translocation robust z-score: 0.43; nuclear/cytoplasmic p65 ratio, rep 1: 1.83; nuclear/cytoplasmic p65 ratio, rep 2: 1.55; low cell count flag: enough cells to score; call: inactive

What is on record for Mki67?
p65 translocation robust z-score: 0.81; nuclear/cytoplasmic p65 ratio, rep 1: 1.51; nuclear/cytoplasmic p65 ratio, rep 2: 1.48; low cell count flag: enough cells to score; call: inactive

With Zfand3, what was measured?
p65 translocation robust z-score: -1.21; nuclear/cytoplasmic p65 ratio, rep 1: 1.16; nuclear/cytoplasmic p65 ratio, rep 2: 1.1; low cell count flag: enough cells to score; call: inactive

Which result is listed for Lrrc46?
nuclear/cytoplasmic p65 ratio, rep 1: 0; nuclear/cytoplasmic p65 ratio, rep 2: 1.56; low cell count flag: fewer than 50 cells per well; well left out of scoring; call: inactive

With Rassf7, what was measured?
p65 translocation robust z-score: 0.37; nuclear/cytoplasmic p65 ratio, rep 1: 1.66; nuclear/cytoplasmic p65 ratio, rep 2: 1.68; low cell count flag: enough cells to score; call: inactive

What is on record for Amer1?
p65 translocation robust z-score: 0.96; nuclear/cytoplasmic p65 ratio, rep 1: 1.5; nuclear/cytoplasmic p65 ratio, rep 2: 1.61; low cell count flag: enough cells to score; call: inactive

What did the screen give for Fancd2?
p65 translocation robust z-score: 0.42; nuclear/cytoplasmic p65 ratio, rep 1: 1.54; nuclear/cytoplasmic p65 ratio, rep 2: 1.41; low cell count flag: enough cells to score; call: inactive

What did the screen give for Plekha7?
p65 translocation robust z-score: -0.32; nuclear/cytoplasmic p65 ratio, rep 1: 1.36; nuclear/cytoplasmic p65 ratio, rep 2: 1.46; low cell count flag: enough cells to score; call: inactive

For Or5b112, what was measured?
p65 translocation robust z-score: 0.99; nuclear/cytoplasmic p65 ratio, rep 1: 1.85; nuclear/cytoplasmic p65 ratio, rep 2: 1.47; low cell count flag: enough cells to score; call: inactive

What did the screen give for Tmed6?
p65 translocation robust z-score: 0.47; nuclear/cytoplasmic p65 ratio, rep 1: 1.14; nuclear/cytoplasmic p65 ratio, rep 2: 1.48; low cell count flag: enough cells to score; call: inactive

With Or8k35, what was measured?
p65 translocation robust z-score: 1.13; nuclear/cytoplasmic p65 ratio, rep 1: 1.83; nuclear/cytoplasmic p65 ratio, rep 2: 1.75; low cell count flag: enough cells to score; call: inactive

For Fdxacb1, how do the results read?
p65 translocation robust z-score: -2.03; nuclear/cytoplasmic p65 ratio, rep 1: 1.44; nuclear/cytoplasmic p65 ratio, rep 2: 1.22; low cell count flag: enough cells to score; call: active

Which result is listed for Mfsd11?
nuclear/cytoplasmic p65 ratio, rep 1: 1.44; nuclear/cytoplasmic p65 ratio, rep 2: 1.81; low cell count flag: fewer than 50 cells per well; well left out of scoring; call: inactive

Which result is listed for Sugp1?
nuclear/cytoplasmic p65 ratio, rep 1: 1.47; nuclear/cytoplasmic p65 ratio, rep 2: 1.27; low cell count flag: fewer than 50 cells per well; well left out of scoring; call: inactive

What is on record for Nat14?
nuclear/cytoplasmic p65 ratio, rep 1: 1.06; nuclear/cytoplasmic p65 ratio, rep 2: 1.41; low cell count flag: fewer than 50 cells per well; well left out of scoring; call: inactive
